Structures are written as SMILES.

Consider 21 compounds from patent US6132944A, “Photographic element containing high dye-yield couplers” (Eastman Kodak Company, priority 1999, dated 2000).

A short description of series [1]: single layer coating sensitometry, C41 process: contrast (gamma) and Dmax vs. reference coupler C-1. The protocol: Test samples were prepared, processed and tested as follows.
The formats for single layer samples were as follows (amounts in g/m2 unless otherwise specified).
The image couplers were, typically, dispersed in di-n-butyl phthalate. Coated strips were exposed using a conventional step-wedge and processed using the Kodak Flexicolor C41 process.
Couplers were coated as follows:
Format 1: Comp-2 and Comp-3
Format 2: Comp-5 and Comp-6
Format 3: All other couplers
In each case, the high dye-yield couplers were coated at the lower laydown of those given for the format.
The samples were tested as shown in the footnotes of Table I, and the results of the testing are as shown.
***(coupler contrast/C1 reference coupler contrast) x 100; all examples
****Coupler Dmax/Dmax of reference coupler C1
(a)Comp1 and reference coupler C1 were each coated at 1.3 mmoles/m^2
(b)Comp2 and Comp3 were each coated at 0.20 mmoles/m^2 and reference
(c)Comp5 and Comp6 were each coated at 0.2 mmoles/m^2 and reference
(d)Inv1 through Inv10 were all coated at 0.27 mmoles/m^2 and compared

The nature of series [2]: Dmax (sensitometry) and azomethine dye in Dmax (HPLC), standard process. The conditions noted are these: for unreacted coupler in the Dmax region: in words. The protocol: Samples of each element were imagewise exposed through a graduated density test object and processed at 40° C., employing a color developing solution as described below, then bleached, fixed, and dried to produce yellow dye images.
A series of experiments were conducted in order to determine the factors involved in the relatively low Dmax values observed for carboxylic acid solubilized HDY couplers as compared to sulfonamide solubilized HDY couplers. On the basis of these experiments, it was concluded that the carboxylic acid solubilized couplers yielded dyes subject to washout under neutral conditions. Table 1 contains a list of Dmax values (sensitometry) for a series of HDY couplers and the relative amounts of azomethine dye (HPLC). In each case the relative yield of carboxylic acid solubilized dye is lower than that of the sulfonamide solubilized dye.
^a Standard exposure and processing conditions are given in the
^c Relative amounts of azomethine dye based on HPLC analysis.

A short description of series [3]: azomethine dye washout after water rinse (20 min), accelerated process. The following applies: 20 min rinse; for % Azomethine Dye lost: HPLC. As for the experimental part:
As a consequence, the carboxylic acid solubilized dye could possibly be subject to washout during bleach, fix, or rinse steps. In order to test this hypothesis, a series of coated film strips were processed under accelerated conditions (see Table III) to minimize any potential dye loss. The strips were then subject to rinse (water) for 20 min. The sensitometric change in the Dmax value after rinse in addition to the % dye lost during rinse are contained in Table VI. | ^a Processed under accelerated conditions, see Table III | ^c Given by the difference: Dmax(20 min rinse) Dmax(no rinse). | ^d Determined by HPLC analysis.

The mark [4] stands for this setting: Format 4, Comp-1 and C-1 each at 1.3 mmoles/m^2, dibutyl phthalate.
The mark [5] stands for this setting: Format 1, 0.20 mmoles/m^2, C-1 at 0.40 mmoles/m^2, dibutyl phthalate.
Where [6] appears, read: Format 2, 0.2 mmoles/m^2, C-1 at 0.4 mmoles/m^2, dibutyl phthalate.
Where [7] appears, read: Format 3, 0.27 mmoles/m^2, C-1 at 0.54 mmoles/m^2, dibutyl phthalate.
Setting [8] is: Format 3, 0.27 mmoles/m^2, C-1 at 0.54 mmoles/m^2, oleyl alcohol.

As to `CCCCCCCCCCCCCCCCS(=O)(=O)Nc1ccc(Cl)c(NC(=O)C(OC(=O)N(CC)c2ccc(N=Nc3ccc(C(=O)OCCCCCCCCCCCC)cc3)cc2)C(=O)C(C)(C)C)c1` (stereo not shown) [Comp-1], in series [1] (setting [4]), the “% gamma (vs. C-1)” value is recorded as 38% and the “Dmax/Dmax (vs. C-1)” value is recorded as 0.62.

With `CCCCCCCCCCCCCCCCNS(=O)(=O)c1ccc(Cl)c(NC(=O)C(OC(=O)N(CCCC)c2ccc(C=C(C#N)c3nc4ccccc4o3)c(C)c2)C(=O)c2ccc(OC)cc2)c1` (stereo not shown) [Comp-2], in series [1] (setting [5]), the “% gamma (vs. C-1)” value was 14% and the “Dmax/Dmax (vs. C-1)” value turned out to be 0.24.

`CCCCCCCCCCCCCCCCNS(=O)(=O)c1ccc(Cl)c(NC(=O)C(OC(=O)N(CCCCCCCCCCCC)c2ccc(C=C(C#N)c3nc4ccccc4o3)c(C)c2)C(=O)c2ccc(OC)cc2)c1` (stereo not shown) [Comp-3]: in series [1] (setting [5]), the “% gamma (vs. C-1)” value came out at 29% and the “Dmax/Dmax (vs. C-1)” value was determined as 0.44.

Take `CCCCCCCN(C(=O)OC(C(=O)Nc1ccccc1OC)C(=O)c1cccc(NS(=O)(=O)c2ccc(C)cc2)c1)c1ccc(C=C(C#N)c2nc3ccc(C)cc3o2)c(C)c1` (stereo not shown) [Comp-5]: in series [1] (setting [6]), the “% gamma (vs. C-1)” value is reported as 69% and the “Dmax/Dmax (vs. C-1)” value was 1.07.

`CCCCN(C(=O)OC(C(=O)Nc1ccccc1OC)C(=O)c1cccc(NS(=O)(=O)c2ccc(C)cc2)c1)c1ccc(C=C(C#N)c2nc3cc(C(C)(C)CC(C)(C)C)ccc3o2)c(C)c1` (stereo not shown) [Comp-6]: in series [1] (setting [6]), the “% gamma (vs. C-1)” value is 82% and the “Dmax/Dmax (vs. C-1)” value is 1.21.

For the compound `Cc1cc(N(C(=O)OC(C(=O)Nc2cc(NS(=O)(=O)c3cccc(C(=O)O)c3)ccc2Cl)C(=O)C(C)(C)C)C2CCCC2)ccc1C=C(C#N)c1nc2cc(C(C)(C)CC(C)(C)C)ccc2o1` (stereo not shown) [Comp-13], in series [2] (high boiling solvent Sol. 6), the “Azomethine dye in Dmax (HPLC), relative amount” value (from here on “Azomethine dye … relative amount”) is listed as 0.51 and the Dmax was found to be 1.35. Besides, the “unreacted coupler in the Dmax region” value in series [2] is listed as “contains no unreacted coupler in the Dmax region”. Besides, in series [3] (Sol. 6), the “% Azomethine Dye lost” value was found to be 13% and the “Blue Dmax change” value is given as -0.11.

`Cc1cc(N(C(=O)OC(C(=O)Nc2cc(NC(=O)c3ccccc3C(=O)O)ccc2Cl)C(=O)C(C)(C)C)C2CCCC2)ccc1C=C(C#N)c1nc2cc(C(C)(C)CC(C)(C)C)ccc2o1` (stereo not shown) [Comp-14]: in series [2] (high boiling solvent Sol. 6), the “Azomethine dye … relative amount” value worked out at 0.26 and the Dmax worked out at 1.02. For the same compound, in series [3] (Sol. 6), the “% Azomethine Dye lost” value is 39% and the “Blue Dmax change” value is -0.13.

For `Cc1cc(N(C(=O)OC(C(=O)Nc2cc(NC(=O)CCC(=O)O)ccc2Cl)C(=O)C(C)(C)C)C2CCCC2)ccc1C=C(C#N)c1nc2cc(C(C)(C)CC(C)(C)C)ccc2o1` (stereo not shown) [Comp-15], in series [2] (high boiling solvent Sol. 6), the “Azomethine dye … relative amount” value came to 0.21 and the Dmax came out at 1.26. In series [3] (Sol. 6), the “% Azomethine Dye lost” value is on record as 51% and the “Blue Dmax change” value is reported as -0.21.

In the case of `Cc1cc(N(C(=O)OC(C(=O)Nc2cc(NS(=O)(=O)c3ccc(O)cc3)ccc2Cl)C(=O)C(C)(C)C)C2CCCC2)ccc1C=C(C#N)c1nc2cc(C(C)(C)CC(C)(C)C)ccc2o1` (stereo not shown) [Comp-21], in series [1] (setting [7]), the “% gamma (vs. C-1)” value is 98% and the “Dmax/Dmax (vs. C-1)” value is 1.18.

Turning to `Cc1cc(N(C(=O)OC(C(=O)Nc2cc(NS(=O)(=O)c3ccc(O)c(NS(C)(=O)=O)c3)ccc2Cl)C(=O)C(C)(C)C)C2CCCC2)ccc1C=C(C#N)c1nc2cc(C(C)(C)CC(C)(C)C)ccc2o1` (stereo not shown) [Inv-1], in series [1] (setting [7]), the “% gamma (vs. C-1)” value is 145% and the “Dmax/Dmax (vs. C-1)” value is recorded as 1.40.

In the case of `COc1ccc(C(=O)C(OC(=O)N(c2ccc(C=C(C#N)c3nc4cc(C(C)(C)CC(C)(C)C)ccc4o3)c(C)c2)C2CCCC2)C(=O)Nc2cc(NS(=O)(=O)c3ccc(O)cc3)ccc2Cl)cc1` (stereo not shown) [Inv-3], in series [1] (setting [7]), the “% gamma (vs. C-1)” value amounted to 166% and the “Dmax/Dmax (vs. C-1)” value was found to be 1.59.

As for `CCN(C(=O)OC(C(=O)Nc1cc(NS(=O)(=O)c2c(NS(C)(=O)=O)ccc3ccccc23)ccc1Cl)C(=O)c1ccc(OC)cc1)c1ccc(C=C(C#N)c2nc3cc(C(C)(C)CC(C)(C)C)ccc3o2)c(C)c1` (stereo not shown) [Inv-4], in series [1] (setting [7]), the “% gamma (vs. C-1)” value was determined as 150% and the “Dmax/Dmax (vs. C-1)” value was 1.52.

`CCN(C(=O)OC(C(=O)Nc1cc(NS(=O)(=O)c2ccc(NS(C)(=O)=O)c3ccccc23)ccc1Cl)C(=O)c1ccc(OC)cc1)c1ccc(C=C(C#N)c2nc3cc(C(C)(C)CC(C)(C)C)ccc3o2)c(C)c1` (stereo not shown) [Inv-5]: in series [1] (setting [7]), the “% gamma (vs. C-1)” value was 199% and the “Dmax/Dmax (vs. C-1)” value was 1.68.

With `Cc1cc(N(C(=O)OC(C(=O)Nc2cc(NS(=O)(=O)c3ccc(NS(C)(=O)=O)cc3O)ccc2Cl)C(=O)C(C)(C)C)C2CCCC2)ccc1C=C(C#N)c1nc2cc(C(C)(C)CC(C)(C)C)ccc2o1` (stereo not shown) [Inv-6], in series [1] (setting [7]), the “% gamma (vs. C-1)” value is given as 168% and the “Dmax/Dmax (vs. C-1)” value worked out at 1.59.

Turning to `CCN(C(=O)OC(C(=O)Nc1cc(NS(=O)(=O)c2ccc(NS(C)(=O)=O)cc2)ccc1Cl)C(=O)c1ccc(OC)cc1)c1ccc(C=C(C#N)c2nc3cc(C(C)(C)CC(C)(C)C)ccc3o2)c(C)c1` (stereo not shown) [Inv-7], in series [1] (setting [7]), the “% gamma (vs. C-1)” value was 183% and the “Dmax/Dmax (vs. C-1)” value is 1.56.

In the case of `CCN(C(=O)OC(C(=O)Nc1cc(NS(=O)(=O)c2ccccc2NS(C)(=O)=O)ccc1Cl)C(=O)c1ccc(OC)cc1)c1ccc(C=C(C#N)c2nc3cc(C(C)(C)CC(C)(C)C)ccc3o2)c(C)c1` (stereo not shown) [Inv-8], in series [1] (setting [7]), the “% gamma (vs. C-1)” value came to 158% and the “Dmax/Dmax (vs. C-1)” value is 1.53.

Turning to `Cc1cc(N(C(=O)OC(C(=O)Nc2cc(NS(=O)(=O)c3cccc(NS(C)(=O)=O)c3)ccc2Cl)C(=O)C(C)(C)C)C2CCCC2)ccc1C=C(C#N)c1nc2cc(C(C)(C)CC(C)(C)C)ccc2o1` (stereo not shown) [Inv-9], in series [1] (setting [7]), the “% gamma (vs. C-1)” value worked out at 110% and the “Dmax/Dmax (vs. C-1)” value was determined as 1.39. For the same compound, in series [2] (high boiling solvent Sol. 6), the “Azomethine dye … relative amount” value turned out to be 0.54 and the Dmax is listed as 1.35. Besides, the “unreacted coupler in the Dmax region” value in series [2] is listed as “has unreacted coupler in the Dmax region”. For the same compound, in series [3] (Sol. 6), the “% Azomethine Dye lost” value was 0% and the “Blue Dmax change” value was -0.02.

For the compound `COc1ccc(C(=O)C(OC(=O)N(c2ccc(C=C(C#N)c3nc4cc(C(C)(C)CC(C)(C)C)ccc4o3)c(C)c2)C2CCCC2)C(=O)Nc2cc(NS(=O)(=O)c3ccccc3NS(C)(=O)=O)ccc2Cl)cc1` (stereo not shown) [Inv-10], in series [1] (setting [8]), the “% gamma (vs. C-1)” value came out at 204% and the “Dmax/Dmax (vs. C-1)” value came out at 1.84.

As for `Cc1cc(N(C(=O)OC(C(=O)Nc2cc(NS(=O)(=O)c3cc(NS(C)(=O)=O)ccc3NS(C)(=O)=O)ccc2Cl)C(=O)C(C)(C)C)C2CCCC2)ccc1C=C(C#N)c1nc2cc(C(C)(C)CC(C)(C)C)ccc2o1` (stereo not shown) [Inv-26], in series [3] (Sol. 6), the “% Azomethine Dye lost” value is 3% and the “Blue Dmax change” value was -0.04.

With `CCC(C)(C)c1cc(C(C)(C)CC)c2oc(C(C#N)=Cc3ccc(N(C(=O)OC(C(=O)Nc4cc(NS(=O)(=O)c5ccc(NS(C)(=O)=O)cc5NS(C)(=O)=O)ccc4Cl)C(=O)C(C)(C)C)C4CCCC4)cc3C)nc2c1` (stereo not shown) [Inv-42], the “Azomethine dye … relative amount” value in series [2] (Sol. 3 (50%): Sol. 4 (50%)) is given as 0.76; in series [2] (high boiling solvent Sol. 2), 0.78; in series [2] (high boiling solvent Sol. 5), 0.68. Further, the Dmax came out at 1.44 in series [2] (Sol. 3 (50%): Sol. 4 (50%)), 1.51 in series [2] (high boiling solvent Sol. 2) and 1.42 in series [2] (high boiling solvent Sol. 5). Besides, the “% Azomethine Dye lost” value was 0% in series [3] (Sol. 2), 3% in series [3] (Sol. 3 (50%): Sol. 4 (50%)) and 1% in series [3] (Sol. 5). Moreover, the “Blue Dmax change” value in series [3] (Sol. 2) was -0.02; in series [3] (Sol. 3 (50%): Sol. 4 (50%)), -0.02; in series [3] (Sol. 5), 0.00.

With `CCC(C)(C)c1cc(C(C)(C)CC)c2oc(C(C#N)=Cc3ccc(N(C(=O)OC(C(=O)Nc4cc(NS(=O)(=O)c5ccc(NS(C)(=O)=O)c6ccccc56)ccc4Cl)C(=O)C(C)(C)C)C4CCCC4)cc3C)nc2c1` (stereo not shown) [Inv-44], in series [3] (Sol. 1), the “% Azomethine Dye lost” value stood at 4% and the “Blue Dmax change” value was -0.03.
